Results deposited as PubChem BioAssay AID493246 (Drosophila RNAi Screening Center, 2011).

Aim: 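Genes fly cells need to grow and stay alive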 (primary screen)
Cell system: Drosophila Kc and S2R+ cells
Reagents: long dsRNA against Drosophila genes
Read-out: 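Raw, unnormalised count of remaining cells in each well; per-plate z-scores of cell number underlie the calls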
Scale: Kc cell number and S2R+ cell number: higher = more cells remaining
Hit rule: 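Active when the per-plate z-score of cell number is 3 or more in the direction of fewer cells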
The deposit covers about 21,000 reagents; shown is a random part of those with a known target gene and a result. Over the whole deposit, 429 (2%) were called active. 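Values are raw and not normalised between plates; calls rest on per-plate z-scores that were not deposited.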 Reagents against one gene are numbered here. The record does not give: the amount of reagent, the time to read-out.

Lim1 (LIM homeobox 1) #1 showed Kc cell number, rep 1 = 5.56e5; S2R+ cell number, rep 1 = 8.47e5; inactive. With knock-down of Lim1 (LIM homeobox 1) #2 the results were Kc cell number, rep 1 = 1.43e6; Kc cell number, rep 2 = 1.63e6; S2R+ cell number, rep 1 = 1.06e6; S2R+ cell number, rep 2 = 1.23e6; inactive. For SIFaR (SIFamide receptor) #1 the deposit lists Kc cell number, rep 1 = 1.52e6; Kc cell number, rep 2 = 1.48e6; S2R+ cell number, rep 1 = 1.08e6; S2R+ cell number, rep 2 = 1.05e6; inactive. Against SIFaR (SIFamide receptor) #2 the deposit lists Kc cell number, rep 1 = 1.49e6; Kc cell number, rep 2 = 1.44e6; S2R+ cell number, rep 1 = 1.11e6; S2R+ cell number, rep 2 = 1.19e6; inactive. Knock-down of Gmer (GDP-4-keto-6-deoxy-D-mannose 3,5-epimerase/4-reductase) came out at: Kc cell number, rep 1 = 1.35e6; Kc cell number, rep 2 = 1.44e6; S2R+ cell number, rep 1 = 1.18e6; S2R+ cell number, rep 2 = 1.19e6; inactive. Silencing of fzo (fuzzy onions) gave: Kc cell number, rep 1 = 1.44e6; Kc cell number, rep 2 = 1.43e6; S2R+ cell number, rep 1 = 1.01e6; S2R+ cell number, rep 2 = 1.08e6; inactive.

With knock-down of mei-P22 (meiotic P22), the record shows Kc cell number, rep 1 = 1.57e6; Kc cell number, rep 2 = 1.44e6; S2R+ cell number, rep 1 = 1.05e6; S2R+ cell number, rep 2 = 1.14e6; inactive. Knock-down of CG10494 came out at: Kc cell number, rep 1 = 1.30e6; Kc cell number, rep 2 = 1.40e6; S2R+ cell number, rep 1 = 1.20e6; S2R+ cell number, rep 2 = 1.23e6; inactive. With knock-down of CG8736, the record shows Kc cell number, rep 1 = 1.73e6; Kc cell number, rep 2 = 1.79e6; S2R+ cell number, rep 1 = 1.44e6; S2R+ cell number, rep 2 = 1.61e6; inactive. PpN58A (Protein phosphatase N at 58A) gave Kc cell number, rep 1 = 1.43e6; Kc cell number, rep 2 = 1.50e6; S2R+ cell number, rep 1 = 1.04e6; S2R+ cell number, rep 2 = 1.08e6; inactive. CG34433 scored Kc cell number, rep 1 = 1.46e6; Kc cell number, rep 2 = 1.45e6; S2R+ cell number, rep 1 = 1.01e6; S2R+ cell number, rep 2 = 1.06e6; inactive. For CG15219, the entry reads Kc cell number, rep 1 = 1.82e6; Kc cell number, rep 2 = 1.84e6; S2R+ cell number, rep 1 = 1.28e6; S2R+ cell number, rep 2 = 2.04e5; inactive.

gry (gryzun) #1 scored Kc cell number, rep 1 = 1.51e6; Kc cell number, rep 2 = 1.36e6; S2R+ cell number, rep 1 = 1.05e6; S2R+ cell number, rep 2 = 1.15e6; inactive. gry (gryzun) #2 scored Kc cell number, rep 1 = 1.39e6; Kc cell number, rep 2 = 1.45e6; S2R+ cell number, rep 1 = 1.20e6; S2R+ cell number, rep 2 = 1.14e6; inactive. For Top1 (Topoisomerase 1), the values are Kc cell number, rep 1 = 1.66e6; Kc cell number, rep 2 = 1.74e6; S2R+ cell number, rep 1 = 9.86e5; S2R+ cell number, rep 2 = 1.09e6; inactive. Silencing of CG7579 came out at: Kc cell number, rep 1 = 1.44e6; Kc cell number, rep 2 = 1.47e6; S2R+ cell number, rep 1 = 1.27e6; S2R+ cell number, rep 2 = 1.39e6; inactive. Silencing of CG31867 came out at: Kc cell number, rep 1 = 1.73e6; Kc cell number, rep 2 = 1.73e6; S2R+ cell number, rep 1 = 1.19e6; S2R+ cell number, rep 2 = 1.36e6; inactive. For CG7785, the entry reads Kc cell number, rep 1 = 1.43e6; Kc cell number, rep 2 = 1.43e6; S2R+ cell number, rep 1 = 1.03e6; S2R+ cell number, rep 2 = 1.15e6; inactive.

For CG31008, the values are Kc cell number, rep 1 = 1.23e6; Kc cell number, rep 2 = 1.37e6; S2R+ cell number, rep 1 = 1.03e6; S2R+ cell number, rep 2 = 1.06e6; inactive. Against CG10749 the deposit lists Kc cell number, rep 1 = 1.39e6; Kc cell number, rep 2 = 1.32e6; S2R+ cell number, rep 1 = 1.30e6; S2R+ cell number, rep 2 = 1.40e6; inactive. With knock-down of CG10479 the results were Kc cell number, rep 1 = 1.30e6; Kc cell number, rep 2 = 1.40e6; S2R+ cell number, rep 1 = 1.12e6; S2R+ cell number, rep 2 = 1.08e6; inactive. Against Hs6st (Heparan sulfate 6-O-sulfotransferase) #1, the entry reads Kc cell number, rep 1 = 1.44e6; Kc cell number, rep 2 = 1.48e6; S2R+ cell number, rep 1 = 1.06e6; S2R+ cell number, rep 2 = 1.10e6; inactive. Hs6st (Heparan sulfate 6-O-sulfotransferase) #2 showed Kc cell number, rep 1 = 1.20e6; Kc cell number, rep 2 = 1.22e6; S2R+ cell number, rep 1 = 9.73e5; S2R+ cell number, rep 2 = 1.22e6; inactive. With knock-down of Hs6st (Heparan sulfate 6-O-sulfotransferase) #3, the screen gave Kc cell number, rep 1 = 1.36e6; Kc cell number, rep 2 = 1.59e6; S2R+ cell number, rep 1 = 1.01e6; S2R+ cell number, rep 2 = 1.17e6; inactive.

Knock-down of CG3281 resulted in: Kc cell number, rep 1 = 1.85e6; Kc cell number, rep 2 = 1.91e6; S2R+ cell number, rep 1 = 1.24e6; S2R+ cell number, rep 2 = 1.38e6; inactive. Depletion of CG32681 resulted in: Kc cell number, rep 1 = 1.26e6; Kc cell number, rep 2 = 1.66e6; S2R+ cell number, rep 1 = 1.16e6; S2R+ cell number, rep 2 = 1.17e6; inactive. Silencing of Nha2 (Na[+]/H[+] hydrogen antiporter 2) #1 came out at: Kc cell number, rep 1 = 1.40e6; Kc cell number, rep 2 = 1.45e6; S2R+ cell number, rep 1 = 1.01e6; S2R+ cell number, rep 2 = 1.10e6; inactive. For Nha2 (Na[+]/H[+] hydrogen antiporter 2) #2, the entry reads Kc cell number, rep 1 = 1.39e6; Kc cell number, rep 2 = 1.63e6; S2R+ cell number, rep 1 = 9.08e5; S2R+ cell number, rep 2 = 1.05e6; inactive. After knock-down of Nha2 (Na[+]/H[+] hydrogen antiporter 2) #3, the record shows Kc cell number, rep 1 = 1.52e6; Kc cell number, rep 2 = 1.47e6; S2R+ cell number, rep 1 = 1.00e6; S2R+ cell number, rep 2 = 1.07e6; inactive.

2 entries from above, set out differently.
{"Gene":"mei-P22 (meiotic P22)","reagent no.":1,"Kc cell number, rep 1":1.57e6,"Kc cell number, rep 2":1.44e6,"S2R+ cell number, rep 1":1.05e6,"S2R+ cell number, rep 2":1.14e6,"call":"inactive"}
{"Gene":"CG10494","reagent no.":1,"Kc cell number, rep 1":1.30e6,"Kc cell number, rep 2":1.40e6,"S2R+ cell number, rep 1":1.20e6,"S2R+ cell number, rep 2":1.23e6,"call":"inactive"}
